# Screening data, single-dose tests

From ChEMBL document CHEMBL3988442, “University of Dundee, Small-Polar-MMV Screening Library” (2021).

Each number is a percent effect as filed.
The record does not define 0% and 100%; most values in the screen are far below 50% and negative numbers occur (in some assays of this library far below -100).
The compounds are a random part of those screened.

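Phenotypic screen: M. tuberculosis growth, glucose 7H9 medium, 3 days; the read-out is not stated. Tested at 500 µM. The record gives no direction; compounds that gave an IC50 in retests scored well above the rest, so higher reads as more growth inhibition. Size under these conditions: about 18,000 compounds, about 1,400 of them at 50% or above in at least one test.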

structure,percent effect
CC(C)CC(N)C(=O)N1CCNC(=O)C1 (stereo not shown),0.5689%
OC1CCCN(Cc2cc(-c3ccco3)on2)C1 (stereo not shown),15.38%
COC(C)C(=O)N(C)c1ncc(Cl)cc1Cl (stereo not shown),9.429%
NC(=O)COc1cc(Cl)cc(Cl)c1,50.72%
CC(Cc1ccco1)NC(=O)NCC(C)(C)C(N)=O (stereo not shown),0.3427%
Cc1cc(C)nc(N2CCC(C(N)=O)CC2)n1,8.234%
CCn1nnc2cc(C(=O)NCCCC#N)ccc21,8.233%
COc1ccccc1CCNC(=O)NC[C@H](C)O,15.95%
CC[C@H](C)[C@H](N)C(=O)NCCOc1nonc1C,-0.9507%
CSc1cccc(NC(=O)CN)c1,26.41%
CN1CCCC(NC(=O)c2ccc(=O)n(C)c2)C1 (stereo not shown),4.12%
CC(C)N1C(=O)CC(NC(=O)c2cc(Br)c[nH]2)C1=O (stereo not shown),24.23%
Nc1nccnc1C(=O)N1CCCC(C(F)(F)F)C1 (stereo not shown),-7.972%
CC(C)c1noc(CC2CCNCC2)n1,3.159%
CS(=O)(=O)c1ccc(C2CNCCO2)cc1 (stereo not shown),-5.144%
Cc1ccc2[nH]cc(CCN)c2c1,35.82%
O=C(CN1CCn2ccnc2C1)NCCc1cccs1,4.143%
NCC1CCN(C(=O)c2ccccc2C(F)(F)F)C1 (stereo not shown),17.18%
CCS(=O)(=O)c1cc(OC)c(OC)cc1C,21.99%
CC(C)n1cnnc1CCNC(=O)CCC(F)(F)F,3.387%
N#Cc1ccc(CN2CCCN(CCCO)CC2)cc1,43.91%
O=C1NCCCc2[nH]c(Cc3ccncc3)nc21,-1.56%
COCCN(C(=O)NC1CCS(=O)(=O)C1)C1CC1 (stereo not shown),3.961%
NCc1nc(-c2ccc(Cl)cc2)c[nH]1,72.19%
Cc1n[nH]cc1CNCCS(=O)(=O)Cc1ccccc1,24.03%
CC(CO)NC(=O)Nc1nc(-c2ccccc2)ns1 (stereo not shown),-6.699%
CC(C)N(C)CCNC(=O)c1ccco1,-2.992%
O=C(NCCCN1CCCC1)c1ccccn1,19.83%
O=C(C1CCC1)N1CCCC(CN2CCOCC2)CC1 (stereo not shown),1.401%
c1ccc(C2=NCCN2)nc1,5.598%
COc1cccc(Cn2cnc(C#N)n2)c1,39.74%
O=C(Nc1cncc(Br)c1O)c1csnn1,5.245%
CCOc1cc(CN2CCCN(C)CC2)ccc1O,11.86%
CN(C)CC1(O)CCCN(CC(C)(C)C)C1=O (stereo not shown),4.866%
Cc1[nH]n(-c2ccc(C#N)cc2)c(=N)c1C,2.965%
CCCN(C(=O)c1cscn1)C1CCNCC1,7.021%
CC(C)N(CC(F)F)C(=O)C(N)c1ccccc1 (stereo not shown),7.183%
CC(C)Oc1cc(Br)ccc1C(=O)N(C)CC(N)=O,19.53%
CCOC(=O)N1CCC(NCc2ccncc2)CC1,11.11%
CCC(C(=O)NCCc1nccn1C)N1CCCC1=O (stereo not shown),4.795%
CC(C)(CO)C(N)c1cccnc1 (stereo not shown),-16.5%
CNC(=O)C1CNC1,-2.231%
CCS(=O)(=O)N1CCN(c2ccc(OC)cc2)C(=O)C1,3.969%
CNCC(=O)Nc1ccc(N2CCOCC2)cc1,13.84%
CNS(=O)(=O)c1ccc(C(=O)NC2CCSCC2)cc1,2.5%
COCCOc1ccc(C(=O)N2CCOCC2)cc1Br,20.71%
Cc1cccc(Cn2c(CCN)n[nH]c2=O)c1,12.8%
CN1CCCCC1CC(=O)NCc1ccc(O)cc1O (stereo not shown),-63.06%
Cc1cc(C)nc(NC(=O)c2ccncc2)c1,-5.678%
CN(C)S(=O)(=O)Nc1ccc2c(c1)C(=O)CCC2,32.74%
CS(=O)(=O)Cc1ccc(CN)cc1,25.52%
Nc1ccc(C(=O)NCC2(Cn3cccn3)CC2)cn1,28.14%
Cc1ccnc(NC(=O)NC2(C)CCC2)c1,-15.24%
CN1CCCCC1C(=O)NCCCc1ccco1 (stereo not shown),2.039%
N[C@@H]1C[C@H]1c1c(F)cccc1F,55.68%
CCOCCC(=O)N1CCC2(CC1)C(=O)NCCN2C,7.374%
CN(C)C(=O)CNc1ccc(OC(F)F)c(Cl)c1,-14.35%
CCN(Cc1c(F)cccc1F)S(C)(=O)=O,8.828%
COc1ncccc1NC(=O)N1CCCC1,7.806%
N#Cc1ccc2c(c1)CCCC2N (stereo not shown),31.48%
O=C(NCc1cn2cc(Br)ccc2n1)C1CC1,-5.358%
Cc1cnn(CC(=O)NCCC2CCOC2)c1 (stereo not shown),18.41%
CCN(CCO)C(=O)c1ccn(-c2ccccc2F)n1,26.88%
CCC(CO)N1CCN(C(=O)c2cncc(F)c2)CC1 (stereo not shown),12.78%
CC(C)Oc1ccc(CNC(=O)N2CCCC2)cn1,70.99%
CN1N=C(C(=O)NCCCN(C)S(C)(=O)=O)CCC1=O,3.131%
Cn1cncc1CCNC(=O)c1ccc(Cl)cn1,40.92%
O=C(c1ccc(Br)cn1)N1CCN(CCO)CC1,-2.29%
CCCn1nnnc1CSc1ccccc1C#N,38.01%
O=C(NCCSCc1cccc(Cl)c1)C1CNCCO1 (stereo not shown),76.19%
Cc1ccc(C2CC(=O)NC(SCC(N)=O)=C2C#N)o1 (stereo not shown),36.52%
CCSc1cc(Cl)ccc1C(=O)N[C@H](C)C(=O)NC,11.97%
NC(Cc1ccc(O)cc1)c1nc2ccccc2[nH]1 (stereo not shown),13.38%

Some entries from above, unchanged:

- CN(C)C(=O)CNc1ccc(OC(F)F)c(Cl)c1 : -14.35%
- CN(C)S(=O)(=O)Nc1ccc2c(c1)C(=O)CCC2 : 32.74%
- c1ccc(C2=NCCN2)nc1 : 5.598%
- Nc1ccc(C(=O)NCC2(Cn3cccn3)CC2)cn1 : 28.14%